Laboratory results: article PMC7067850, “Identification of highly potent and selective inhibitor, TIPTP, of the p22phox-Rubicon axis as a therapeutic agent for rheumatoid arthritis” (Scientific Reports, 2020)

Target: T1, p22phox subunit of NADPH oxidase (mouse, endogenous) (mouse (endogenous in synoviocytes of CIA mice, BMDMs, Raw264.7)) (UniProt Q61462)
T1 sequence: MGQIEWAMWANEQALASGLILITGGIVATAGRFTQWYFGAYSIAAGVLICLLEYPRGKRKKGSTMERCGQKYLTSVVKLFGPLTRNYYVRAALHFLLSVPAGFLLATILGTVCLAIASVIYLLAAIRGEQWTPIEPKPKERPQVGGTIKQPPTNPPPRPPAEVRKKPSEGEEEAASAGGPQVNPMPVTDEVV
Assay: affinity purification with mass spectrometry; p22phox complexes precipitated from synovial fluid containing synoviocytes of CIA mice, washed with lysis buffer, NuPAGE gel, silver stain, band analysed by tandem mass spectrometry

B1: Run/cysteine-rich-domain-containing Beclin1-interacting autophagy protein (Rubicon) (mouse, endogenous) (protein, UniProt Q80U62 1-956)
chain: MRPEGAGMDLGGGDGERLLEKSRREHWQLLGNLKTTVEGLVSANCPNVWSKYGGLERLCRDMQNILYHGLIHDQVCCRQADYWQFVKDIRWLSPHSALHVEKFISLHESDQSDTDSVSERAVAELWLQHSLQCHCLSAQLRPLLGDRQYIRKFYTETAFLLSDAHVTAMLQCLEAVEQNNPRLLAQIDASMFARKQESPLLVTKSQSLTALPGSTYTPPASYAQHSYFGSSSSLQSMPQSSHSSERRSTSFSLSGPSWQPQEDRECLSPAETQTTPAPLPSDSTLAQDSPLTAQEMSDSTLTSPLEASWVSSQNDSPSDVSEGPEYLAIGNPAPHGRTASCESHSSNGESSSSHLFSSSSSQKLESAASSLGDQEEGRQSQAGSVLRRSSFSEGQTAPVASGTKKSHIRSHSDTNIASRGAAGGPRNITIIVEDPIAEGGQYLCSGEGMFRRPSEGQSLISYLSEQDFGSCADLEKENAHFSISESLIAAIELMKCNMMSQCLEEEEVEEEDSDREIQELKQKIRLRRQQIRTKNLLPAYRETENGSFRVTSSSSQFSSRDSTQLSESGSAEDADDLEIQDADIRRSAVSNGKSSFSQNLSHCFLHSTSAEAVAMGLLKQFEGMQLPAASELEWLVPEHDAPQKLLPIPDSLPISPDDGQHADIYKLRIRVRGNLEWAPPRPQIIFNVHPAPTRKIAVAKQNYRCAGCGIRTDPDYIKRLRYCEYLGKYFCQCCHENAQMVVPSRILRKWDFSKYYVSNFSKDLLLKIWNDPLFNVQDINSALYRKVKLLNQVRLLRVQLYHMKNMFKTCRLAKELLDSFDVVPGHLTEDLHLYSLSDLTATKKGELGPRLAELTRAGAAHVERCMLCQAKGFICEFCQNEEDVIFPFELHKCRTCEECKACYHKTCFKSGRCPRCERLQARRELLAKQSLESYLSDYEEEPTEALALEATVLETT
In the case of B1, the binding is reported as “binds”.

No constants are given. Whether binding was seen depends on the method and setting. Binding seen in cells or lysates may run through a third protein. These calls come from enrichment with a bait or labelling near it, and not all partners need be listed.
